# Reference: patent US9115212B2, “Bifunctional peptide” (REGENTIS INTERNATIONAL, priority 2012, dated 2015)
# At least one structure is not confirmed: it was looked up by name or label, or the drawing left a doubt. Where a SMILES comes first, the peptide text is derived from it.
# Assays:
# urokinase = urokinase (Homo sapiens, UniProt P00749); assay: Urokinase activity on synthetic substrate S2444; type: biochemical; conditions: substrate S2444, time 15 min
# Protocol: The activity of the urokinase on its synthetic substrate, D-Glu-Gly-Arg+NHPhNO2 L-Pyroglutamyl-glycyl-L-arginine-p-Nitroaniline hydrochloride (2444) has been tested in the presence and absence of the peptide according to the invention at different concentrations.
# A kinetics of hydrolysis of the substrate S2444 […] by the urokinase (9.25*10^−6 mM) was carried out in the presence of the bifunctional peptide having the sequence […] (SEQ. ID NO. 1) and concentrated at 10^−3, 10^−4 and 10^−5 M for 1 hour. The control corresponds to the kinetics in the absence of peptide. The enzyme activity was evaluated by measuring the absorbance (DO) at 405 nm every 5 minutes for a period of 35 min.
# FIG. 6B is a graphical representation of the dose/effect relationship between the activity of the urokinase and the concentration of the bifunctional peptide used at time 15 min. The dotted line in the figure permits to determine the IC50, i.e. the peptide concentration required to reduce the activity of the urokinase by 50%.
# MMP-1 = molecular target: T1, MMP-1 (Homo sapiens, UniProt P03956); assay: MMP-1 activity on synthetic substrate DNP-Pro-Cha-Gly-Cys (Me)-His-Ala-Lys (N-Me-Abz)-NH2; type: biochemical; conditions: time 15 min
# T1 sequence (P03956 100-469): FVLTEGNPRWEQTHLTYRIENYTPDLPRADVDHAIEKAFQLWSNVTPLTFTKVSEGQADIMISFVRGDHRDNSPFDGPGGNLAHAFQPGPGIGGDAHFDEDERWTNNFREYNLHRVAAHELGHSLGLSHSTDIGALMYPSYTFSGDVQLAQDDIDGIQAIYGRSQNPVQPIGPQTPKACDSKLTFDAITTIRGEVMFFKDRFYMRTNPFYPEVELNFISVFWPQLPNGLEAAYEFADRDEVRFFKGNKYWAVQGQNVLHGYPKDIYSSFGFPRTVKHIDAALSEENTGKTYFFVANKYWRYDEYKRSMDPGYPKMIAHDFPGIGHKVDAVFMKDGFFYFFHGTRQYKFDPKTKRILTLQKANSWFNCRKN
# Protocol: The substrate of the MMP-1 that was used to test its activity in the presence of the peptide is a synthetic substrate, DNP-Pro-Cha-Gly-Cys (Me)-His-Ala-Lys (N-Me-Abz)-NH2.
# A concentration of 80 ng/μl of MMP-1 was brought in the presence of 0.4 ng/μl of synthetic substrate, in the presence or not of bifunctional peptide concentrated at 10^−3, 10^−4 and 10^−5 M for 1 h.
# More particularly, FIG. 7A represents a kinetics of hydrolysis of the synthetic substrate of the MMP-1 in the presence or absence (control) of the peptide at different concentrations. The enzymatic activity of the MMP-1 was evaluated by measuring the absorbance (DO) at 465 nm every 5 minutes for a period of 35 min.
# FIG. 7B is a graphical representation of the dose-effect relationship between the activity of the MMP-1 and the concentration of bifunctional peptide used at time 15 min.
# The Gly-Ile-Leu (GIL) sequence was selected by the inventors for its capability of occupying the P′1, P′2 and P′3 pockets of type I collagenase, the MMP-1. The activity of the latter has been tested on the synthetic substrate, the DNP-Pro-Cha-Gly-Cys (Me)-His-Ala-Lys(N-Me-Abz)-NH2, in the presence or absence of the peptide 5 having the Gly-Ile-Leu (GIL) sequence at concentrations of 10^−5, 10^−4 and 10^−3 M.
structure (smiles),measurement,setting,value
CC[C@H](C)[C@H](NC(=O)CNC(=O)[C@H](CC(C)C)NC(=O)[C@H](CCCNC(=N)N)NC(=O)[C@@H](NC(=O)[C@H](CCCNC(=N)N)NC(=O)CNC(=O)[C@@H]1CCCN1C(=O)[C@H](C)NC(=O)[C@@H](NC(=O)[C@H](C)NC(=O)[C@@H](NC(=O)CNC(=O)[C@@H]1CCCN1C(=O)[C@H](C)NC(=O)[C@@H](NC(=O)[C@H](C)NC(=O)[C@@H](NC(=O)CNC(=O)[C@@H]1CCCN1C(=O)[C@H](C)NC(=O)[C@@H](NC(=O)CNC(=O)[C@@H](N)C(C)C)C(C)C)C(C)C)C(C)C)C(C)C)C(C)C)C(C)C)C(=O)N[C@@H](CC(C)C)C(=O)O [pept 1] (H-VGVAPGVAVAPGVAVAPGRVRLGIL-OH),IC50,urokinase,8.3 µM
same,IC50,MMP-1,40 µM
